# PubChem BioAssay AID504764 | Drosophila RNAi Screening Center, 2011
# Aim: 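Knock-downs that raise or lower a Notch target reporter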 (primary screen)
# Cells: Drosophila Kc167 cells
# Reagent: long dsRNA against Drosophila genes
# Time to read-out: about 5 days (4 days dsRNA, then 24 h after transfection)
# Treatment: transfection of constitutively active membrane-tethered Notch lacking the extracellular domain, read 24 h later
# Read-out: 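Light from a Notch-responsive E(spl)m3 luciferase reporter under active Notch, with control-promoter and no-Notch reporter wells to normalise; raw counts from paired wells a and b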
# Scale: induced reporter light, run 1, well a and induced reporter light, run 1, well b: higher = more light from the Notch target reporter with active Notch; control promoter light, run 1, well a and control promoter light, run 1, well b: higher = more light from the viral control promoter (cell number, transfection, viability); uninduced reporter light, run 1, well a: higher = more light from the Notch target reporter without active Notch
# Rule for the call: 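Wells with low control signal or poorly matching duplicates excluded; duplicates averaged; per source plate, z beyond ±2 for induced/control log2 ratio or beyond ±1.8 for induced/uninduced marks a hit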
# Calls: active = modifier hit (raised or lowered Notch signal); inactive = not a hit
# The screen tested about 22,000 reagents; this is a random part of those that have a named target and a result. Of all reagents, 403 (1.9%) are marked active. 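Unnormalised raw counts per well; ratio z-scores behind the hit calls and whether each hit raises or lowers signal are not deposited.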 Entries without a mark were called inactive. A plus sign joins genes that one reagent is predicted to hit. The record does not give: the amount of reagent.
predicted target,amplicon,"induced reporter light, run 1, well a","induced reporter light, run 1, well b","control promoter light, run 1, well a","control promoter light, run 1, well b","uninduced reporter light, run 1, well a"
CG13359,DRSC18539,94750,92970,1.71e5,1.44e5,6945
Vha100-1 (Vacuolar H[+] ATPase 100kD subunit 1),DRSC14148,2.13e5 (active),2.16e5,1.67e5,1.83e5,11390
spz (spatzle),DRSC17065,1.75e5,1.67e5,2.24e5,2.38e5,14335
CG8673,DRSC03105,1.41e5,1.87e5,1.06e5,1.49e5,21888
Ip259 (Intronic Protein 259),DRSC03352,2.00e5,2.12e5,1.47e5,1.97e5,14475
exd (extradenticle),DRSC20330,93115,90000,90215,85165,11642
rdo (reduced ocelli),DRSC02452,1.67e5,1.28e5,82595,95470,13470
CG33627,DRSC05343,2.30e5,2.49e5,3.11e5,3.82e5,20745
CG14125,DRSC10129,1.59e5,1.66e5,1.89e5,1.62e5,8365
CG7882,DRSC04899,1.70e5,1.43e5,1.67e5,1.45e5,11820
AstA-R1 (Allatostatin A receptor 1),DRSC17278,48865,72535,68110,76570,6500
AstA-R1 (Allatostatin A receptor 1),DRSC17727,1.93e5,2.00e5,3.90e5,3.35e5,14580
Inx7 + cm,DRSC18753,2.45e5,2.06e5,2.76e5,2.45e5,18065
Ugt303A1 (UDP-glycosyltransferase family 303 member A1),DRSC15641,85425,93475,98015,80335,3030
Saysd1 (SAYSVFN motif domain containing 1),DRSC14664,1.53e5,1.32e5,1.92e5,2.14e5,12382
Noc3 (Nucleolar complex protein 3),DRSC12535,93010,85000,1.05e5,96530,7005
CG3502 + CG9863,DRSC04578,1.56e5,1.37e5,1.44e5,1.37e5,9920
CG15443,DRSC00455,2.11e5,1.69e5,2.32e5,2.84e5,11605
Sec31 (Secretory 31),DRSC07131,1.07e5,92670,65055,65525,6150
CG2938,DRSC18243,1.54e5,1.56e5,2.00e5,2.37e5,12345
Hsc70-5 (Heat shock protein 70 cognate 5),DRSC07442,1.20e5,1.00e5,1.13e5,99420,9895
natalisin,DRSC14966,45175,48770,31565,34750,8490
natalisin,DRSC14967,2.77e5,3.04e5,2.99e5,3.30e5,27920
CG15739,DRSC19705,1.10e5,1.06e5,1.93e5,1.82e5,7535
Esyt2 (Extended synaptotagmin-like protein 2),DRSC16082,1.16e5,1.19e5,1.57e5,1.57e5,6930
Appl (beta amyloid protein precursor-like),DRSC17728,1.69e5,1.67e5,1.65e5,1.76e5,10810
CG42741,DRSC04593,1.49e5,1.23e5,1.48e5,1.56e5,11130
CG2924,DRSC18525,1.67e5,2.06e5,2.94e5,2.87e5,14680
CG10853,DRSC08164,1.19e5,1.31e5,1.40e5,1.33e5,6632
CG31729,DRSC02524,1.90e5,1.94e5,1.46e5,1.42e5,13890
CG31729,DRSC02946,1.49e5,1.57e5,1.80e5,1.78e5,13050
vtd (verthandi),DRSC20839,24945,49790,36715,39480,6415
CG5793,DRSC15874,1.79e5,1.56e5,1.87e5,1.91e5,12955
CG5715,DRSC15860,1.90e5,1.49e5,2.02e5,1.87e5,12942

An excerpt taken from the entries so far, for reference:
predicted target,amplicon,"induced reporter light, run 1, well a","induced reporter light, run 1, well b","control promoter light, run 1, well a","control promoter light, run 1, well b","uninduced reporter light, run 1, well a"
CG10853,DRSC08164,1.19e5,1.31e5,1.40e5,1.33e5,6632
CG31729,DRSC02524,1.90e5,1.94e5,1.46e5,1.42e5,13890
CG31729,DRSC02946,1.49e5,1.57e5,1.80e5,1.78e5,13050
